# Measured values published in article PMC4790320, “Purification of a Multidrug Resistance Transporter for Crystallization Studies” (Antibiotics, 2015).
# Amino acid sequences for entries named in this document (tags omitted).
# UniProt P0A6F5: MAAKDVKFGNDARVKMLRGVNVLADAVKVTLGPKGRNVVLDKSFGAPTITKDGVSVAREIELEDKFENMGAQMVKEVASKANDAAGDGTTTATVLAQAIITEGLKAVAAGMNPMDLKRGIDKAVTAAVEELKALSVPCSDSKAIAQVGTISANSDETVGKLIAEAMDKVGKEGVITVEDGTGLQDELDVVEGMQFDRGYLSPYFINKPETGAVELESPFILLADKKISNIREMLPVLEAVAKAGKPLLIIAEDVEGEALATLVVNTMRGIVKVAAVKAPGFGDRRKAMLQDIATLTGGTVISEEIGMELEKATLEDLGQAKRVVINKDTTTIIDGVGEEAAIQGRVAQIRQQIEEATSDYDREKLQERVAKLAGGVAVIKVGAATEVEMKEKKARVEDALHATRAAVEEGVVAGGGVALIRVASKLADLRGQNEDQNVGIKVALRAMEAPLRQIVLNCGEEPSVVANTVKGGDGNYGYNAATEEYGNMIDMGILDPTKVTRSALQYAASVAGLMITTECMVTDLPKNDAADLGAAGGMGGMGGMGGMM
# Target: T1, MdtM, hexahistidine (6-His) fusion protein (unmodified purification protocol) (E. coli) (UniProt P39386)
# T1 sequence: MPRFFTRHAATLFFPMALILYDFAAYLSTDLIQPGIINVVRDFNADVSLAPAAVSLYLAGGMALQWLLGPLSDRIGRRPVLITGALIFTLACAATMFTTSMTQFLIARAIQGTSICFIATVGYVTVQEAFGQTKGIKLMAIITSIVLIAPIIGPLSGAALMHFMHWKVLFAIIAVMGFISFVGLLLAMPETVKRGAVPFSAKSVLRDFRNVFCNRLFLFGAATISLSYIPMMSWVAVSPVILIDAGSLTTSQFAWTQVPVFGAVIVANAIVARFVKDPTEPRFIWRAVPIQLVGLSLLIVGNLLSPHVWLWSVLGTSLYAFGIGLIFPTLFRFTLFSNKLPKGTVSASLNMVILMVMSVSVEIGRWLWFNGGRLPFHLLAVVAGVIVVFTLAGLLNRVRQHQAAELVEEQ
# Assay: affinity purification with mass spectrometry; Ni-NTA IMAC of 6-His MdtM from DDM-solubilised LMG194 membranes, unmodified protocol, 4 °C; ~58 kDa Coomassie band of the eluate cut out, trypsin digest, MALDI TOF/TOF
substance,measurement,value
57.3 kDa E. coli GroEL chaperonin protein (from UniProt P0A6F5 1-548),binding,binds

# Results are given in words; binding and its absence hold for the method and conditions named. In cells and extracts the contact can be indirect. A yes stands for co-enrichment or nearness to the bait. Other partners may have been found. Sequences can lack the tags named with a protein.
